{"source": "patent US20050065596A1", "about": "“Stents capable of controllably releasing histone deacetylase inhibitors” (priority 2002, published 2005)", "key": {"[1]": {"tested_on": "Human aortic SMCs", "experiment": "Morphological analysis of human aortic SMCs after one day incubation with drug", "assay_type": "cell-based", "conditions": "FIG. 12", "method": "(§1) Human aortic SMCs were obtained from BioWhittaker Molecular Applications, Inc. (Clonetics, CC-2571), cultured in Smooth Muscle Medium-2 (BioWhittaker Molecular Applications, Inc., CC-3182), and maintained at 37° C. in humidified 95% air/5% CO2. Human aortic SMCs of passages 8-9 were used in the following experiments.\n(§2) Human aortic SMCs cells were seeded, at a density of 6×10^3 cells/well, in a 24-well plate (about 3×10^3 cells/cm^2, quadruplicates). Following cell attachment for 24 hours, the above drugs were added to the cells, to achieve the following final concentrations: 100 nM and 500 nM of TSA, 10 nM of RPM, and 50 nM of Paclitaxel.\nFollowing a one day incubation with the drug, the morphological changes in the cells were evaluated under a microscope."}, "[2]": {"tested_on": "Human aortic SMCs", "experiment": "MTT assay of cell proliferation", "assay_type": "cell-based", "conditions": "10 nM RPM; four days incubation; FIG. 13", "method": "as §1\nCell proliferation was measured by MTT assay and cell counting.\nas §2\nFollowing three additional days of incubation, 50 μl MTT (methylthiazoletetrazolium, 5 mg/ml in sterile H2O) were added in 0.5 ml medium to each well, and the cells were incubated at 37° C. for 4 hours. The medium was then aspirated, and the cells were dissolved in 300 μl 0.1 N HCl/isopropanol, mixed thoroughly, and a 100 μl portion of the mixture was transferred into a 96-well plate;\nThe 96-well plate was applied to a micro-plate reader and the absorbance at 570 nm was read. The average reading of wells containing only medium was set as the Control. For each sample, the proliferation rate was determined by the following equation: (Reading/Control)×100=Proliferation Rate (% of Control)."}}, "note": "At least one structure is not confirmed: it was looked up by name or label, or the drawing left a doubt."}
{"smiles": "CO[C@H]1C[C@@H]2CC[C@@H](C)[C@@](O)(O2)C(=O)C(=O)N2CCCC[C@H]2C(=O)O[C@H]([C@H](C)C[C@@H]2CC[C@@H](O)[C@H](OC)C2)CC(=O)[C@H](C)/C=C(\\C)[C@@H](O)[C@@H](OC)C(=O)[C@H](C)C[C@H](C)/C=C/C=C/C=C/1C", "note": "[RPM, Rapamycin]", "values": [{"measurement": "nature of the inhibitory effect on SMCs", "setting": "[1]; concluded from the morphological analysis", "value": "mainly cytostatic"}, {"measurement": "morphological changes observed in a 40× microscope field", "setting": "[1]; one day incubation, 100 nM and 500 nM TSA, 10 nM RPM, 50 nM Paclitaxel", "value": "No morphological changes"}, {"measurement": "inhibitory effect on the growth of the human SMCs (proliferation rate, MTT)", "setting": "[2]", "value": "inhibitory effect"}]}
